These results are taken from publication PMC13554221.

Sequences of proteins named here, by UniProt entry; tags and fusion partners are left off.
UniProt Q9CQJ4: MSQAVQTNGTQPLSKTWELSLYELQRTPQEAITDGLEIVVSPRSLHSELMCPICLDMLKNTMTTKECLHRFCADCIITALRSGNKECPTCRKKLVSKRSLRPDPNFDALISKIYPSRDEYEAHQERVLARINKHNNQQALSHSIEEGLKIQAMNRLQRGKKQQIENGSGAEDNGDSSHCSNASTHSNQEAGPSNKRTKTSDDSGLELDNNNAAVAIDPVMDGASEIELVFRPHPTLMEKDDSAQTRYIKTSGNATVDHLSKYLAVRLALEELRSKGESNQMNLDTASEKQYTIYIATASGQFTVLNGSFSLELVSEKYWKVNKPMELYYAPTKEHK

These are yes or no findings as the source states them, for the method shown. In cells and extracts the contact can be indirect. Tags and fused reporters may be left off the sequences shown.

In the experiment the target is T1, CTCF-AID-EGFP (mouse (endogenous in ESCs)) (UniProt Q61164).
T1 sequence: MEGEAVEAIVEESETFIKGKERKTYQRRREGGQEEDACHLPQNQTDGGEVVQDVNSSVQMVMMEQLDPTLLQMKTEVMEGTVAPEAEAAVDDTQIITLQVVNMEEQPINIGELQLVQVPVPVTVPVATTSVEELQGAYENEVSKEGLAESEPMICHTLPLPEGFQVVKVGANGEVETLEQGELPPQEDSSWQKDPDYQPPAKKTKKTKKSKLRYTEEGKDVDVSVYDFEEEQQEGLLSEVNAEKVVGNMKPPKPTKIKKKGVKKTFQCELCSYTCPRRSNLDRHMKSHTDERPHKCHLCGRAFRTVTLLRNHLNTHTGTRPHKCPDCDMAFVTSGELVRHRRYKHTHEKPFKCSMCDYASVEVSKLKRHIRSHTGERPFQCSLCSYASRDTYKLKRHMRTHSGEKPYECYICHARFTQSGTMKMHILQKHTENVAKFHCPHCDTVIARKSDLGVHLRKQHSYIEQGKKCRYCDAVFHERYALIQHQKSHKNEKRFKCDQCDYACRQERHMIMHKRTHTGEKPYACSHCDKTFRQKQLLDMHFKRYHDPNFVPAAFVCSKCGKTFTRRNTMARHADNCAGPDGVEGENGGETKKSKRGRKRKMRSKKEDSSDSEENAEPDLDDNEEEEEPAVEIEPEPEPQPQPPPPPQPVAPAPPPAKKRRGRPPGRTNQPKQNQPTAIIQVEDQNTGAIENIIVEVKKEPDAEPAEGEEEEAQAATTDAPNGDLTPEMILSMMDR
In words: co-IP; CTCF antibody (10 µg) with whole-cell lysate of CTCF-AID-EGFP ESCs treated with IAA (auxin) or DMSO for 24 h; 2 h at 4 °C in Buffer A + Buffer BN, protein G beads overnight at 4 °C, five washes with Buffer BN (100 mM KCl, 0.1% IGEPAL), glycine elution; immunoblotting for CTCF and RING1B.

For the substance Ring1b (from UniProt Q9CQJ4 1-336), the binding result is on record as “no binding”.
